Measurements as given in article PMC5118688 (Scientific Reports, 2016).

What was measured:
[1] = tested on: mAb3C9; test: competitive phage-ELISA of mimotopes against parathion-methyl; format: binding, mouse; conditions: mimotope as labelled
[2] = spike-recovery study by mimotope-based dcELISA; conditions: n=3
[3] = spike-recovery study by chemosynthesized antigen-based dcELISA; conditions: n=3

Compound	Amax [1]	R (%) average recovery ([2]; apple, spiked 10 ng/g) [%]	R (%) average recovery ([2]; cabbage, spiked 10 ng/g) [%]	R (%) average recovery ([2]; cucumber, spiked 10 ng/g) [%]	R (%) average recovery ([3]; apple, spiked 10 ng/g) [%]	R (%) average recovery ([3]; cabbage, spiked 10 ng/g) [%]	R (%) average recovery ([3]; cucumber, spiked 10 ng/g) [%]	also measured
C R G S M P F W C (CRGSMPFWC) [Hapten M32, phage-display peptide mimotope of mAb3C9]	1.38							
C M A R Y M S A C (CMARYMSAC) [Hapten M39, phage-display peptide mimotope of mAb3C9]	1.59							
COP(=S)(OC)Oc1ccc([N+](=O)[O-])c(C)c1 [Fenitrothion]		97.7	101.2	101.8	97.7	101.2	101.8	R (%) average recovery ([2]; apple, spiked 20 ng/g): 94.8%; R (%) average recovery ([2]; cabbage, spiked 20 ng/g): 98.2%; R (%) average recovery ([2]; cucumber, spiked 20 ng/g): 94.7%; R (%) average recovery ([3]; apple, spiked 20 ng/g): 91.8%; R (%) average recovery ([3]; cabbage, spiked 20 ng/g): 98.2%; R (%) average recovery ([3]; cucumber, spiked 20 ng/g): 94.7%
C L G T T P F F C (CLGTTPFFC) [Hapten M4, phage-display peptide mimotope of mAb3C9]	1.52							
C L Y H P W N N C (CLYHPWNNC) [Hapten M3, phage-display peptide mimotope of mAb3C9]	1.41							
COP(=S)(OC)SCn1nnc2ccccc2c1=O [Azinphos-methyl]		102.5	97.8	108.5	102.5	97.8	108.5	R (%) average recovery ([2]; apple, spiked 5 ng/g): 92.4%; R (%) average recovery ([2]; cabbage, spiked 5 ng/g): 93.9%; R (%) average recovery ([2]; cucumber, spiked 5 ng/g): 101.7%; R (%) average recovery ([3]; apple, spiked 5 ng/g): 95.6%; R (%) average recovery ([3]; cabbage, spiked 5 ng/g): 93.9%; R (%) average recovery ([3]; cucumber, spiked 5 ng/g): 101.7%
COP(=S)(OC)Oc1ccc([N+](=O)[O-])cc1 [Parathion-methyl]		93.3	121.5	106.2	90.3	112.8	106.2	R (%) average recovery ([2]; apple, spiked 20 ng/g): 108.2%; R (%) average recovery ([2]; cabbage, spiked 20 ng/g): 101.7%; R (%) average recovery ([2]; cucumber, spiked 20 ng/g): 101.3%; R (%) average recovery ([3]; apple, spiked 20 ng/g): 108.2%; R (%) average recovery ([3]; cabbage, spiked 20 ng/g): 101.7%; R (%) average recovery ([3]; cucumber, spiked 20 ng/g): 101.3%
C T G T T P F Y C (CTGTTPFYC) [Hapten M20, phage-display peptide mimotope of mAb3C9, used for further study]	1.64							
